{"source": "PubChem BioAssay AID1347423", "about": "(Functional Genomics Laboratory (NCATS/FGL), 2020)", "note": "Among all 52,000 sequences or so, about 210 (0.4%) were called active.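 How the source made its calls: active means gene whose silencing raises cell survival under the drug, median off-target-corrected z-score across its silencing RNAs 2 or more; inactive means the rest.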 The list shows a part of the results.", "data": [{"experiment": "Resistance to Poly (ADP-Ribose) Polymerase inhibitor: Gene Identification via Genome-wide siRNA Screen", "settings": "mouse BRCA2 R2336H ES cells, olaparib, CellTiter-Glo viability; active compounds read high", "procedure,_shortened": "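Genome-wide siRNA screen (3 siRNAs/gene, 20 nM) in mouse ES cells carrying hypomorphic BRCA2 R2336H; olaparib 500 nM added 48 h post-transfection, CellTiter-Glo viability 72 h later. Normalized to plate-median negative control; MAD z-scores, gene median, seed-adjusted.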", "values": [{"sequence": "GGUAGUACCACUAACCAAATT against Nrl", "z-score": "inactive: -0.818"}, {"sequence": "GCACUUGCCAGGUACUAUGTT against Cnga1", "z-score": "inactive: -1.25"}, {"sequence": "GGACUCAAGGAACCAAAAUTT against Rps3a", "z-score": "inactive: -2.99"}, {"sequence": "CGAUUAUGACCGAUAUAGATT against Fusip1", "z-score": "inactive: 0.823"}, {"sequence": "GGUUUUCCUGUUCAAUUCUTT against Olfr586", "z-score": "inactive: 0.331"}, {"sequence": "GGAAGAACUGAUUGAAGAGTT against Sptlc1", "z-score": "inactive: 0.939"}, {"sequence": "CCCGACGUAGGAUCUUUGATT against Ncdn", "z-score": "inactive: 0.548"}, {"sequence": "GCUGAUGGACAAAUUCCACTT against Rapgef1", "z-score": "inactive: 0.411"}, {"sequence": "GGCUUGACCUGCGUCUUCATT against 1700001P01Rik", "z-score": "inactive: 0.0714"}, {"sequence": "GGAUCAGAGAAGGAAAAAATT against Hspa12a", "z-score": "inactive: -0.819"}, {"sequence": "GGUGACAAGAGGUUUUGCUTT against Idh3a", "z-score": "inactive: 0.495"}, {"sequence": "GGAUCAUCAAAGACGACAUTT against Prss34", "z-score": "inactive: -0.807"}, {"sequence": "GGUUGAGUUCCGAUCCCAUTT against Gip", "z-score": "inactive: 0.94"}, {"sequence": "GGACCAGGUGAUGAAGAGGTT against Fzd4", "z-score": "inactive: 0.842"}, {"sequence": "GGGUCGGUCUAUUAGGGAUTT against Rhbdf1", "z-score": "inactive: -1.14"}, {"sequence": "GGGAACAACACAUAAUGGATT against BC002059", "z-score": "inactive: -0.0122"}, {"sequence": "GCUUAAAGAUCGAUCCCGCTT against Slc38a4", "z-score": "inactive: 0.666"}, {"sequence": "GACUUUCAAUACUGUGAUUTT against H2-M10.2", "z-score": "inactive: 0.331"}, {"sequence": "CGUGUACAAGACCAACAACTT against Scg2", "z-score": "inactive: 1.74"}, {"sequence": "GGAAAGACAUGAUACUGUCTT against Nr1i3", "z-score": "inactive: 1.4"}, {"sequence": "GCUCCAACUACAUUGACUATT against Olfr1410", "z-score": "inactive: -1.89"}, {"sequence": "GCCGCCAUGACAGUAAAAGTT against Sfrs4", "z-score": "inactive: -0.52"}, {"sequence": "GGAUGUCUAGUUAUACAUUTT against Mbd3l1", "z-score": "inactive: -0.00607"}, {"sequence": "GGAAGUGAGUCAGAGCUCATT against Cdc42ep3", "z-score": "inactive: -0.165"}, {"sequence": "CCGCCGAUCUACUAGUGGUTT against Slc6a2", "z-score": "inactive: -0.394"}, {"sequence": "GGUUGUGUGUCUGUUUGGUTT against Olfr1012", "z-score": "inactive: -0.473"}, {"sequence": "CGUAUGACUAAGGAUGAAUTT against 2810002D13Rik", "z-score": "inactive: -0.123"}, {"sequence": "GCACGCACACUUAUGAUACTT against Meox2", "z-score": "inactive: -0.668"}, {"sequence": "CCGAAGCUCUGUUUUGAACTT against Hdac9", "z-score": "inactive: -0.59"}, {"sequence": "GGCCAUCAAGAAAGUCAAGTT against 2310043K02Rik", "z-score": "inactive: 0.306"}, {"sequence": "GGAAGGUUUCGCUUUGAAUTT against 9930022N03Rik", "z-score": "inactive: 0.356"}, {"sequence": "CCUGAGAGUAUUCACCAGCTT against Fbp2", "z-score": "inactive: 2.97"}, {"sequence": "CCGAUUCUUAGAAAUGUUCTT against Olfr692", "z-score": "inactive: 0.814"}, {"sequence": "GCCGGAUUCAUUGAAAGCATT against Eif2ak3", "z-score": "inactive: -0.0757"}, {"sequence": "GGCUCAUUGGACAUAUAUGTT against Casp8ap2", "z-score": "inactive: -2.18"}, {"sequence": "GGUAUCAAAGCUGAAAUUGTT against Spnb2", "z-score": "inactive: 0.158"}, {"sequence": "GCUGGAAGGAGGAACCAAGTT against 1810037I17Rik", "z-score": "inactive: -2.52"}, {"sequence": "GGUGCUUUGACCUAUAUCUTT against LOC382137", "z-score": "inactive: 0.684"}, {"sequence": "GGAAGUAACAUGCUUCUAGTT against A530001H01Rik", "z-score": "inactive: 1.18"}, {"sequence": "GGAGUGCAAUUCCUUUCUATT against Ptger3", "z-score": "inactive: 1.3"}, {"sequence": "GGCCUGAUUACCUUGGAAATT against Papss1", "z-score": "inactive: -0.224"}, {"sequence": "GGCUGCUGAAGCAAAUAAGTT against Ankrd17", "z-score": "inactive: -2.59"}, {"sequence": "CCUGCUAAACCUGGACCAUTT against Hic1", "z-score": "inactive: 2.39"}, {"sequence": "GGAACAGGAAGUUAAAUACTT against Neu4", "z-score": "inactive: 0.28"}, {"sequence": "GGCUGGAUUAUUUUUUCUUTT against Usp4", "z-score": "inactive: -0.877"}, {"sequence": "GGACUUAAACUUCAUGACATT against Csf2ra", "z-score": "inactive: 1.71"}, {"sequence": "GCCUUUCUCGUUCCUAUAGTT against 5033414D02Rik", "z-score": "inactive: -1.33"}, {"sequence": "GCGAGUUUAAUGUUUAUGCTT against Pdgfra", "z-score": "inactive: -0.506"}, {"sequence": "GGAACUUAGAAGUUUACAATT against Caml", "z-score": "inactive: 1.53"}, {"sequence": "GGACAGUGCCUGAUAACCATT against Chrm4", "z-score": "inactive: -0.629"}, {"sequence": "GGAUCCUUAAGCUUGGAGCTT against Ascl2", "z-score": "inactive: 0.0295"}, {"sequence": "GGUCCUUAGAAUAAUUAAGTT against Mod1", "z-score": "inactive: -0.105"}, {"sequence": "GGAGAGGGUAGCUUUAAAUTT against Olfr801", "z-score": "inactive: 0.351"}, {"sequence": "GUAUUUCCACUUCAUUGUGTT against Tmem15", "z-score": "inactive: -0.815"}, {"sequence": "GCCAAUUGGUUCCCUGUAATT against 1700034E13Rik", "z-score": "inactive: 0.354"}, {"sequence": "GGCCAUGGCUACUAUUGUCTT against Tgoln1", "z-score": "inactive: -0.294"}, {"sequence": "GGGUGUGCAUUCUUCUAUUTT against Olfr1242", "z-score": "inactive: 2.94"}, {"sequence": "GGUUUUCAAAUGUCUAUCATT against 1110049F12Rik", "z-score": "inactive: 0.315"}, {"sequence": "GGACUCAUCAGAGGAUAAATT against 4930565N07Rik", "z-score": "inactive: -1.25"}, {"sequence": "CGACAUCAAGGAUCGAAUATT against Pkn2", "z-score": "inactive: -0.411"}, {"sequence": "GGAUUUGUACACACUUCAATT against 1810011O10Rik", "z-score": "inactive: -0.989"}, {"sequence": "GGUAGUAGAAGCUGUUAACTT against Slc36a2", "z-score": "inactive: 0.187"}, {"sequence": "UAAAAUAUGCGAGCUCGCGTT against ADAM26b", "z-score": "inactive: 1.91"}, {"sequence": "GGACAUAAGAAAAUGACCATT against Mbtd1", "z-score": "inactive: -1.08"}, {"sequence": "GGAAAUUGCCUUCUACGGGTT against Abcd1", "z-score": "inactive: -0.213"}, {"sequence": "GUGUAUCACAAGACUAUGCTT against Leap2", "z-score": "inactive: -0.581"}]}]}
